# Measured values: paper PMC10587159, “Biosynthesis and engineering of the nonribosomal peptides with a C-terminal putrescine” (Nature Communications, 2023)
# Non-standard residues stand in square brackets, D forms with d. Residues, ends and D or L forms follow the SMILES beside them. *: point of attachment. Lauroyl = CCCCCCCCCCCC(=O)*; NH(CH2)4NH2 = NCCCCN*
# Assay: Product yields in crude extracts of wild type and mutant strains (HPLC-MS)
# Settings: Average of n = 3
structure (smiles),measurement,setting,value
"CCCCCCCCCCCC(=O)N[C@H](CC(C)C)C(=O)N[C@H](CC(N)=O)C(=O)N1CCC[C@H]1C(=O)N[C@H](C(=O)N[C@H](Cc1ccccc1)C(=O)N1CCC[C@H]1C(=O)N[C@@H](Cc1c[nH]c2ccccc12)C(=O)N[C@@H](C(=O)N[C@@H](C)C(=O)N[C@H](C)C(=O)N[C@@H](CO)C(=O)N[C@@H](C)C(=O)NCCCCN)C(C)C)C(C)C [Compound 9, Glidonin I] (Lauroyl-[dL][dN]PV[dF]PW[dV]A[dA]SA-{NH(CH2)4NH2})",Relative yield of 9 and intermediate 9a between WT and mutants,mutant Del-C13A*T13TE,0
same,Relative yield of 9 and intermediate 9a between WT and mutants,mutant Del-TE2,34.1432
same,Relative yield of 9 and intermediate 9a between WT and mutants,mutant Del-TE,0.8285
same,Relative yield of 9 and intermediate 9a between WT and mutants,mutant P13-TE,0
same,Relative yield of 9 and intermediate 9a between WT and mutants,strain WT,100
